The record followed here is PMC7790953 (ACS chemical neuroscience, 2020).

Assay [1] has as its target 9B1. It counts as binding, mouse. Particulars: read-out: Ki (9B1); pH 7.4.
Assay [2] addresses h9B1. It counts as binding. To be noted: read-out: Ki (h9B1); pH 7.4.

The term Ki denotes a dissociation constant, usually derived from enzyme kinetics or from competition with a known ligand. For the compound `CCOC(=O)C1(c2ccccc2)CCN(C)CC1` [meperidine], the values for the Ki in assay [1] and in assay [2] were 8.89 µM and 15.7 µM, respectively.
